A/B data for two molecules are collected here from patent publication EP2808342B1, “Medium for in-vitro toxicity testing and in-vitro toxicity test method using the same” (priority 2013, dated 2014).

This series relates to N2a cells. The series can be described thus: Toxicity test (CCK-8 cell proliferation assay) on 3D cell clusters grown on REP-coated plates. It is filed as cell-based. Conditions: ratio of IC50, Cell Cluster of Ex. 2 (A) / Cultured Cell of C. Ex. 1 (B). Here is the method: REP was dissolved at a concentration of 10 µM in phosphate buffered saline (PBS), and the 10 µM REP solution was aliquoted in an amount of 50 µl per well into 96-well polystyrene plates and incubated for 1 hr at 37°C. The supernatant was removed from each well to leave REP to adhere to the plates.
N2a cells ([…], purchased from the ATCC, USA) were seeded at a density of 5x10^5 cells/well into the culture plates coated with REP prepared in Example 1 (hereinafter referred to as "REP-plate"). The cell culture medium was Eagle's Minimum Essential Medium (EMEM) supplemented with 2 mM glutamine, 1 mM sodium pyruvate, 1.5 g/l sodium bicarbonate, 100 units/ml penicillin and 100 µg/ml streptomycin. The REP-plates where N2a cells were seeded were incubated for 3 days at 37°C in a 5% CO2 atmosphere with humidity of 95% to afford the formation of 3D cell clusters.
To the cell clusters obtained in Example 2 or the cells obtained in Comparative Example 1 was added a solution of PFOA (perfluorooctanoic acid, Mw 414.1 g/mol, Sigma-Aldrich, 171468-5G, 96%) with a concentration of 5 µM, 20 µM, 50 µM, 100 µM, 200 µM, 300 µM, 400 µM, 500 µM, 600 µM, 700 µM, 800 µM, 900 µM, 1,000 µM or 2,000 µM. After 3, 24 or 48 hrs of incubation, the cells were assayed for proliferation using a cell counting kit-8 (CCK-8, Dojindo, Japan).
The PFOA solution was made by dissolving PFOA in dimethyl sulfoxide (DMSO, Sigma-Aldrich, USA) at a final concentration of 5 µM, 20 µM, 50 µM, 100 µM, 200 µM, 300 µM, 400 µM, 500 µM, 600 µM, 700 µM, 800 µM, 900 µM, 1,000 µM or 2,000 µM.
For the cell proliferation assay, absorbance (OD) at 450 nm was measured on an amicroplate reader (Multiskan, Thermo USA). From the measurements, inhibitory concentration (IC50) values were calculated using TOXCALC 5.0 (Tidepool Scientific Software, USA).
A solution of PFOS (perfluorooctane sulfonates; Mw 538.2, Sigma-Aldrich, 77282-10G, ≥98.0 (T)) with a concentration of 5 µM, 20 µM, 50 µM, 100 µM, 200 µM, 300 µM, 400 µM, 500 µM, 600 µM, 700 µM, 800 µM, 900 µM, 1,000 µM or 2, 000 µM was added to the cell clusters obtained in Example 2 and to the cells obtained in Comparative Example 1. After 3, 24 or 48 hrs of incubation, the cells were assayed for proliferation using a cell counting kit-8 (CCK-8, Dojindo, Japan).
The PFOS solution was made by dissolving PFOS in dimethyl sulfoxide (DMSO, Sigma-Aldrich, USA) at a final concentration of 5 µM, 20 µM, 50 µM, 100 µM, 200 µM, 300 µM, 400 µM, 500 µM, 600 µM, 700 µM, 800 µM, 900 µM, 1,000 µM or 2,000 µM.
(In general: Tetrazolium dyes change colour on reduction, which living cells bring about.)

As for `O=C(O)C(F)(F)C(F)(F)C(F)(F)C(F)(F)C(F)(F)C(F)(F)C(F)(F)F` [PFOA, perfluorooctanoic acid], the A/B was found to be 1.24 (3 hrs), 1.27 (24 hrs) and 1.37 (48 hrs).

In the case of `O=S(=O)(O)C(F)(F)C(F)(F)C(F)(F)C(F)(F)C(F)(F)C(F)(F)C(F)(F)C(F)(F)F` [PFOS, perfluorooctane sulfonates], the A/B (3 hrs) worked out at 2.41, the A/B (24 hrs) is reported as 1.62 and the A/B (48 hrs) is reported as 1.37.
